According to article PMC3317874, “Palmitoylation and membrane cholesterol stabilize μ-opioid receptor homodimerization and G protein coupling” (BMC Cell Biology, 2012):
These are yes or no findings as the source states them, for the method shown. In cells and extracts the contact can be indirect. Some binding calls cover weakened binding; strength is not graded here. Sequences can lack the tags named with a protein.

Molecular target: T1, FLAG-tagged wild-type μ-opioid receptor (OPRM1) (rat), P33535
T1 chain: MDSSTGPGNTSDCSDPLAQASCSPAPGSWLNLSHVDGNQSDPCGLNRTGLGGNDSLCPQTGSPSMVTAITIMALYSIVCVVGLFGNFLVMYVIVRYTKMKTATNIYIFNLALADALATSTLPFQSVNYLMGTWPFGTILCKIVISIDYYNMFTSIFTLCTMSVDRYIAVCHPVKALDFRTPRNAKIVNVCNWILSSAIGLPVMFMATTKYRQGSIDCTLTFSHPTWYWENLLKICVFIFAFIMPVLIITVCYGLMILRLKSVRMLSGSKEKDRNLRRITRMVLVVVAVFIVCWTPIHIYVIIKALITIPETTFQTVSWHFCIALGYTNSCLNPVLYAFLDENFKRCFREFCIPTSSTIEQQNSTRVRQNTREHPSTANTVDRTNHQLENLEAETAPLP
Experiment: co-IP; FLAGOPRM1/FLAGC170A and HAOPRM1/HAC170A transfected into HEK cells; HA-tagged receptor precipitated with FLAG-tagged receptor, quantified by immunoblotting
Details: remark: other sources report otherwise

B1: HA-tagged wild-type μ-opioid receptor (OPRM1), P33535 1-398 (receptor)
chain: MDSSTGPGNTSDCSDPLAQASCSPAPGSWLNLSHVDGNQSDPCGLNRTGLGGNDSLCPQTGSPSMVTAITIMALYSIVCVVGLFGNFLVMYVIVRYTKMKTATNIYIFNLALADALATSTLPFQSVNYLMGTWPFGTILCKIVISIDYYNMFTSIFTLCTMSVDRYIAVCHPVKALDFRTPRNAKIVNVCNWILSSAIGLPVMFMATTKYRQGSIDCTLTFSHPTWYWENLLKICVFIFAFIMPVLIITVCYGLMILRLKSVRMLSGSKEKDRNLRRITRMVLVVVAVFIVCWTPIHIYVIIKALITIPETTFQTVSWHFCIALGYTNSCLNPVLYAFLDENFKRCFREFCIPTSSTIEQQNSTRVRQNTREHPSTANTVDRTNHQLENLEAETAPLP
modifications: here or on the partner: palmitoylated at C3.55(170); palmitoylated at C3.55(170)
  binding: binds
